Assay results from PubChem BioAssay AID588590 (National Center for Advancing Translational Sciences (NCATS), 2011).
Out of some 390,000 compounds screened, about 4,000 (1%) were called active. The shares of active, inactive and inconclusive entries below differ from those in the screen. Calls follow the shape of the dose curve; as a rule, active = well fitted inhibition curve with a large enough effect; inconclusive = small, poorly fitted or top-dose-only effect, or another doubt; inactive = no such curve, though single readings can be large or run the other way. Potencies of inconclusive entries are doubtful fits and often do not repeat.

Sequences of proteins named here, by UniProt entry; tags and fusion partners are left off. A change or cut given only in a name is not applied to a line headed by its entry.
UniProt Q9UNA4: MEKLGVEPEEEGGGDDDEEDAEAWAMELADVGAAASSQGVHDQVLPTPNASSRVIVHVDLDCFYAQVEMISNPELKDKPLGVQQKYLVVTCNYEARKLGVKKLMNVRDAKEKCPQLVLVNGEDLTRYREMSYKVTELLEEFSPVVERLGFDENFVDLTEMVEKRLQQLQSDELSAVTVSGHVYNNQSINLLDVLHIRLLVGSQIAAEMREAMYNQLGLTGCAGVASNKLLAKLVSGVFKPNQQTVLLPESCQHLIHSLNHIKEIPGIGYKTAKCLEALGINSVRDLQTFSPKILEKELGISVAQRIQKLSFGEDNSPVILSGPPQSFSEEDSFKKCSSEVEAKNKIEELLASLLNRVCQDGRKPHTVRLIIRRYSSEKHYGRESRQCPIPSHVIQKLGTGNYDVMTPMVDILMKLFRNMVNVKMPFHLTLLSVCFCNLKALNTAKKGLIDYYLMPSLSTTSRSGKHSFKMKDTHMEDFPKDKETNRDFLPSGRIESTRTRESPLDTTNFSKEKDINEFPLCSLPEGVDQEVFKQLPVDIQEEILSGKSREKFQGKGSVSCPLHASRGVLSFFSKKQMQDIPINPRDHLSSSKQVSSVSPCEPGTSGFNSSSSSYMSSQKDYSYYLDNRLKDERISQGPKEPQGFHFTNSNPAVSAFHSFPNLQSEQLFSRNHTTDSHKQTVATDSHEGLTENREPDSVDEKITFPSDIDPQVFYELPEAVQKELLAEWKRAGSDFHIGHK

Molecular target: DNA polymerase iota (Homo sapiens) (UniProt Q9UNA4)
Experiment: qHTS for Inhibitors of Polymerase Iota
Details: Pol iota fluorescent replication assay, 10 min; series mostly up to 115 µM
In short: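 Fluorescent replication assay read twice, at 0 min and 10 min after adding 50 nM (final) substrate. Enzyme (10 nM) and compounds were first incubated 15 min at room temperature; enzyme-free buffer wells were negative controls.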
Potency is read from the fitted curve at half-maximal effect.

Compound | Potency
Cc1ccc(/C(O)=C2/C(=O)C(=O)OC2c2ccc(Cl)cc2)cc1 (stereo not drawn) | inconclusive: 12.6 µM [inhibitor, full curve, poor fit]
CC(C)c1ccc(/C=C2\CC/C(=C\C=N\N(C)C)C2=O)cc1 | inactive
COc1ccccc1CNC(=O)c1cc2ccc3ccc(C)[nH]c3c2n1 | inactive
CCOC(=O)c1cc(-c2ccc([N+](=O)[O-])cc2)nc2c1c(=O)[nH]c(=O)n2Cc1ccccc1 | inconclusive: 28.2 µM [inhibitor, partial curve, poor fit]
Cc1ccc(/C=C/C(=O)c2ccccc2)cc1 | inconclusive: 44.7 µM [inhibitor, partial curve]
Cc1nn(-c2ccccc2)c(Cl)c1/C=N/NC(=O)OC(C)(C)C | inconclusive: 100 µM [inhibitor, partial curve, poor fit]
COc1cc(S(=O)(=O)N2CCC(N3CCCCC3)CC2)ccc1-n1cnnn1 | inconclusive: 10 µM [inhibitor, full curve, poor fit]
C/C(=N\Nc1c(Cl)c(Cl)nc(C(=O)O)c1Cl)c1ccc(O)cc1 | inconclusive: 56.2 µM [inhibitor, partial curve, poor fit]
CCOCCCNc1ncnc2c1[nH]c1ccccc12 | inconclusive: 70.8 µM [inhibitor, partial curve, poor fit]
CN(C)CCOC(c1ccccc1)c1ccccc1 | inconclusive: 31.6 µM [inhibitor, partial curve, poor fit]
O=[N+]([O-])c1ccc(O)c(C=Nc2ccc3c(c2)OCO3)c1 | inactive
O=C(NNC(=O)c1cc2cc3ccccc3nc2s1)c1cccc(C(F)(F)F)c1 | inconclusive: 112 µM [inhibitor, partial curve, poor fit]
CCc1ccc(CN(Cc2ccco2)C(=O)COc2ccc(Cl)cc2C)cc1 | inactive
O=C(CS(=O)(=O)Cc1ccccc1)Nc1nc2c(s1)CCCC2 | inconclusive: 35.5 µM [inhibitor, single point]
O=C(CCc1nnc2n(Cc3ccc(Cl)cc3)c(=O)c3ccccc3n12)N1CCN(c2ccccn2)CC1 | inactive
COc1ccc(CN2C(=O)C(C)Nc3ncnc(N4CCOCC4)c32)cc1 (stereo not drawn) | inconclusive: 20 µM [inhibitor, partial curve, poor fit]
O=[N+]([O-])c1cc(-c2nc(-c3ccccc3)no2)ccc1NCCc1ccccc1 | inactive
CNC(=S)N/N=C1\CC(c2ccccc2)Oc2ccccc21 (stereo not drawn) | inactive
O=S(=O)(Nc1ccc(O)c2ccccc12)c1ccc(F)cc1 | inconclusive: 14.1 µM [inhibitor, full curve]
O=C(CC1SC(=O)N(c2ccccc2)C1=O)Nc1ccccc1 (stereo not drawn) | inconclusive: 39.8 µM [inhibitor, single point]
CCOC(=O)CCNCc1ccc(F)cc1 | inactive
O=C(N/N=C/c1ccccn1)c1cc(-c2ccc3ccccc3c2)n[nH]1 | inconclusive: 20 µM [inhibitor, full curve, poor fit]

A different layout for 4 compounds above.
Compound	Potency
Cc1ccc(/C(O)=C2/C(=O)C(=O)OC2c2ccc(Cl)cc2)cc1 (stereo not drawn)	inconclusive: 12.6 µM [inhibitor, full curve, poor fit]
CCOC(=O)c1cc(-c2ccc([N+](=O)[O-])cc2)nc2c1c(=O)[nH]c(=O)n2Cc1ccccc1	inconclusive: 28.2 µM [inhibitor, partial curve, poor fit]
O=C(CCc1nnc2n(Cc3ccc(Cl)cc3)c(=O)c3ccccc3n12)N1CCN(c2ccccn2)CC1	inactive
O=C(N/N=C/c1ccccn1)c1cc(-c2ccc3ccccc3c2)n[nH]1	inconclusive: 20 µM [inhibitor, full curve, poor fit]

Remaining list, next part:

Compound | Potency
CCN(c1cc(C)cc(C)c1)S(=O)(=O)c1nnc(NC(=O)c2ccco2)s1 | inactive
COc1ccc(NC(=O)CCN2CCN(CCO)CC2)cc1 | inconclusive: 100 µM [inhibitor, single point]
CC1CCN(CCCCOc2ccc(C(=O)c3ccccc3)cc2)CC1 | inconclusive: 3.16 µM [inhibitor, single point]
Cc1nc2c(C(=O)NCCc3ccccc3)c[nH]n2c(=O)c1Cc1ccc(F)cc1Cl | inconclusive: 89.1 µM [inhibitor, partial curve, poor fit]
COc1ccc(/C=C(/C#N)C(=O)Nc2cccc([N+](=O)[O-])c2)cc1C(=O)O | inconclusive: 20 µM [inhibitor, partial curve, poor fit]
COC(=O)c1ccc(NC(=O)c2cccc(NC(=O)c3ccco3)c2)cc1 | inactive
COc1ccc2[nH]c3nc(SCc4nnc(-c5ccccc5)o4)nnc3c2c1 | inactive
Cc1cccc(-n2c(C)nnc2SCC(=O)NC(C)c2ccco2)c1 (stereo not drawn) | inconclusive: 79.4 µM [inhibitor, single point]
COc1ccc2[nH]c3c(=O)n(CCCC(=O)NC4CCCCC4C)c(=S)[nH]c3c2c1 (stereo not drawn) | inconclusive: 39.8 µM [inhibitor, partial curve, poor fit]
Cc1ccc(C(=O)N2NC(c3ccc(F)cc3)C3C(=O)N(c4ccc(C)c(C)c4)C(=O)C32)cc1 (stereo not drawn) | inconclusive: 12.6 µM [inhibitor, partial curve, poor fit]
COC(=O)c1sc2nc(C)c([N+](=O)[O-])c(C)c2c1N | inconclusive: 89.1 µM [inhibitor, single point]
N#Cc1ccccc1OCC(=O)N(Cc1nnc(-c2ccccc2Cl)o1)C1CC1 | inconclusive: 39.8 µM [inhibitor, partial curve]
Cc1nn2c(=O)cc(COC(=O)c3ccc(NC(=O)c4cccs4)cc3)nc2s1 | inactive
CNc1ncnc(Sc2nc(N)nc3nc[nH]c23)c1[N+](=O)[O-] | inconclusive: 31.6 µM [inhibitor, partial curve]
O=C(O)c1cc(-c2ccco2)nc2ccccc12 | active: 12.6 µM
CCOC(=O)c1c(-c2ccccc2Cl)csc1NC(=O)c1cc(S(=O)(=O)N2CCOCC2)ccc1C | inactive
Cc1cccc(NC(=O)CSc2ccc(-c3ccco3)nn2)c1C | active: 12.6 µM
COc1ccccc1OCCNC(=O)c1ccccc1C | inconclusive: 79.4 µM [inhibitor, partial curve, poor fit]
CN(CC(=O)Nc1ccccc1Cl)C(=O)COC(=O)c1nc(Cl)c(Cl)c(Cl)c1Cl | inconclusive: 89.1 µM [inhibitor, single point]
O=C(c1ccccc1)N1N=C(c2ccccc2)CC1c1cccs1 (stereo not drawn) | inconclusive: 79.4 µM [inhibitor, single point]
COc1ccc(OC)c(S(=O)(=O)ON2C(=O)c3ccccc3C2=O)c1 | inconclusive: 22.4 µM [inhibitor, single point]
